Reference: PubChem BioAssay AID1224826 (NIAID, 2016)

- Test: 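Genes that change LPS-induced Tnf promoter activity in mouse macrophages when knocked down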 (primary screen)
- Cell system: RAW264.7 G9 macrophages from mouse bearing reporters for p65 (GFP) and the Tnf promoter (mCherry)
- Knock-down reagent: siRNA pool against mouse genes, 100 nM
- Time to read-out: 16 h of LPS stimulation, after 2 days of siRNA transfection
- Conditions: bacterial lipopolysaccharide (Salmonella minnesota R595), 10 ng/ml
- Detection: 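Imaged Tnf reporter mCherry in nuclei, minus background, normalised per plate to the median and expressed as robust z-scores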
- Scale: Tnf reporter robust z-score: higher = stronger Tnf promoter reporter signal after LPS; Tnf reporter intensity: higher = stronger Tnf promoter reporter signal
- Hit rule: 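a well counts as active at a score of -1.3 or below (Tlr4 knock-down control median) or above 3 (raised signal); controls and wells holding fewer than 50 cells are excluded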
- Calls: active = Tnf reporter clearly lowered or raised; inactive = no clear change in Tnf reporter
Here is one part, drawn at random, of about 17,000 deposited reagents. In the full data, about 1,110 (6.6%) got an active call. 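Active means lowered or raised reporter signal; replicate intensities are raw and not normalised per plate.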 The numbers tell different reagents against one gene apart.

target | pool no. | Tnf reporter robust z-score | fewer than 50 cells in well | Tnf reporter intensity, replicate 1 | Tnf reporter intensity, replicate 2 | outcome
Arrb2 | 1 | – | fewer than 50 cells per well; well left out of calls | 185 | 75.5 | inactive
Tcp1 | 1 | 1.05 | enough cells in well | 365 | 150 | inactive
Fyb1 | 1 | 0.43 | enough cells in well | 232 | 174 | inactive
Cfap410 | 1 | 0.55 | enough cells in well | 177 | 76.3 | inactive
Afap1 | 1 | -0.66 | enough cells in well | 191 | 55.8 | inactive
Tyms | 1 | 0.96 | enough cells in well | 271 | 344 | inactive
Ppp1r12a | 1 | 0.13 | enough cells in well | 225 | 228 | inactive
Nrn1l | 1 | -1.61 | enough cells in well | 92.5 | 76.2 | active
Zfp184 | 1 | – | fewer than 50 cells per well; well left out of calls | 138 | 51.1 | inactive
Rundc1 | 1 | 0.31 | enough cells in well | 194 | 177 | inactive
Pgm5 | 1 | 1.05 | enough cells in well | 181 | 198 | inactive
Supt3 | 1 | 0.49 | enough cells in well | 376 | 208 | inactive
Larp6 | 1 | 1.05 | enough cells in well | 269 | 172 | inactive
Cerk | 1 | 0.11 | enough cells in well | 224 | 145 | inactive
Tedc1 | 1 | – | fewer than 50 cells per well; well left out of calls | 162 | 40.8 | inactive
Dnaaf1 | 1 | -1.17 | enough cells in well | 155 | 30.1 | inactive
Gpc5 | 1 | -0.69 | enough cells in well | 270 | 71 | inactive
Cdk14 | 1 | 0.57 | enough cells in well | 169 | 253 | inactive
Or6c2 | 1 | 0.77 | enough cells in well | 90.9 | 148 | inactive
Celf2 | 1 | 0.71 | enough cells in well | 267 | 275 | inactive
Celf2 | 2 | -0.45 | enough cells in well | 167 | 118 | inactive
Dcxr | 1 | -0.83 | enough cells in well | 178 | 138 | inactive
Rnf167 | 1 | 2.48 | enough cells in well | 314 | 280 | inactive
Dyrk1b | 1 | 1.56 | enough cells in well | 330 | 214 | inactive
Defb11 | 1 | 0.98 | enough cells in well | 261 | 206 | inactive
Prrc1 | 1 | – | fewer than 50 cells per well; well left out of calls | 141 | 39 | inactive
Slc39a8 | 1 | – | fewer than 50 cells per well; well left out of calls | 56 | 112 | inactive
Fn3k | 1 | 1.08 | enough cells in well | 265 | 217 | inactive
Cavin4 | 1 | – | fewer than 50 cells per well; well left out of calls | 170 | 40 | inactive
Phlpp1 | 1 | 0.31 | enough cells in well | 291 | 195 | inactive
Prxl2c | 1 | 0.61 | enough cells in well | 369 | 78.3 | inactive
Col12a1 | 1 | -0.52 | enough cells in well | 168 | 204 | inactive
Etv5 | 1 | 0.23 | enough cells in well | 247 | 248 | inactive
Srms | 1 | – | fewer than 50 cells per well; well left out of calls | 190 | 57.5 | inactive
Ndufaf7 | 1 | 0.38 | enough cells in well | 248 | 89.8 | inactive
Klc3 | 1 | -0.28 | enough cells in well | 195 | 152 | inactive
Fbxo48 | 1 | -0.15 | enough cells in well | 151 | 158 | inactive
Smarcc2 | 1 | 0.4 | enough cells in well | 147 | 215 | inactive
Ldlrad4 | 1 | 2.79 | enough cells in well | 337 | 336 | inactive
Elmo2 | 1 | 1.34 | enough cells in well | 295 | 151 | inactive
Nlk | 1 | 0.07 | enough cells in well | 176 | 168 | inactive
Wipi1 | 1 | -0.39 | enough cells in well | 186 | 126 | inactive
Dusp11 | 1 | -0.34 | enough cells in well | 217 | 170 | inactive
6430571L13Rik | 1 | -0.16 | enough cells in well | 144 | 205 | inactive
1110059E24Rik | 1 | 0.32 | enough cells in well | 237 | 100 | inactive
Or10g1b | 1 | 3.3 | enough cells in well | 380 | 256 | active
Dnajc6 | 1 | – | fewer than 50 cells per well; well left out of calls | 94.4 | 49.4 | inactive
Pramel32 | 1 | -0.18 | enough cells in well | 156 | 164 | inactive

Active calls (from the list above):
target | pool no. | Tnf reporter robust z-score | fewer than 50 cells in well | Tnf reporter intensity, replicate 1 | Tnf reporter intensity, replicate 2 | outcome
Nrn1l | 1 | -1.61 | enough cells in well | 92.5 | 76.2 | active
Or10g1b | 1 | 3.3 | enough cells in well | 380 | 256 | active

The results go on.
target | pool no. | Tnf reporter robust z-score | fewer than 50 cells in well | Tnf reporter intensity, replicate 1 | Tnf reporter intensity, replicate 2 | outcome
Ypel1 | 1 | -0.88 | enough cells in well | 87.1 | 48 | inactive
Scarf2 | 1 | -0.76 | enough cells in well | 266 | 129 | inactive
Zhx1 | 1 | -1.48 | enough cells in well | 125 | 102 | active
Krt12 | 1 | 0.17 | enough cells in well | 244 | 165 | inactive
Tigd4 | 1 | 0.59 | enough cells in well | 145 | 179 | inactive
Anxa8 | 1 | -1.13 | enough cells in well | 85.6 | 104 | inactive
Or2y10 | 1 | -0.55 | enough cells in well | 153 | 93.9 | inactive
Nt5dc3 | 1 | -0.04 | enough cells in well | 90.5 | 192 | inactive
Arhgef18 | 1 | -0.45 | enough cells in well | 115 | 176 | inactive
Adgrg1 | 1 | -0.53 | enough cells in well | 171 | 251 | inactive
Ube3c | 1 | 7.99 | enough cells in well | 890 | 800 | active
Zswim2 | 1 | – | fewer than 50 cells per well; well left out of calls | 0 | 56.6 | inactive
Cep72 | 1 | -0.73 | enough cells in well | 140 | 104 | inactive
Gpr45 | 1 | 0.24 | enough cells in well | 237 | 310 | inactive
Epb41 | 1 | 0.79 | enough cells in well | 277 | 306 | inactive
Cplx2 | 1 | -0.7 | enough cells in well | 161 | 114 | inactive
Pla2g2f | 1 | -0.95 | enough cells in well | 59.8 | 116 | inactive
Capn7 | 1 | 0.42 | enough cells in well | 232 | 141 | inactive
Cdh7 | 1 | 0.63 | enough cells in well | 263 | 286 | inactive
Drosha | 1 | – | fewer than 50 cells per well; well left out of calls | 150 | 59.4 | inactive
Asb10 | 1 | -0.15 | enough cells in well | 192 | 127 | inactive
Gfra4 | 1 | -0.82 | enough cells in well | 185 | 171 | inactive
Ppp2r5c | 1 | 0.17 | enough cells in well | 270 | 195 | inactive
Jpt1 | 1 | 1.99 | enough cells in well | 406 | 277 | inactive
C1qc | 1 | 1.72 | enough cells in well | 228 | 258 | inactive
Armc12 | 1 | – | fewer than 50 cells per well; well left out of calls | 183 | 80.2 | inactive
Edn2 | 1 | 1.43 | enough cells in well | 324 | 205 | inactive
